Reference: the supplement of paper PMC12823440, “Inhibitors supercharge kinase turnover through native proteolytic circuits” (Nature, 2025)
Counter-ions that a name gives are not always drawn. Some of the results follow. Hit calls seldom repeat between salt and free forms of one compound.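 In K562 cells expressing nanoluciferase-fused kinases, luminescence was recorded at 4 h intervals between 2 and 18 h, normalized as percent of control with DMSO at 100% and a positive control at 0%. A significant (2 sigma) signal drop marks a time point as decreased. The authors' rule for a hit is not shown and takes in more than the number of time points.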

Chains of the proteins cited; added tags and fusions are not shown. Lines headed by an entry give the natural chain unless they say otherwise; changes in a name come on top.
UniProt P00519, whole entry: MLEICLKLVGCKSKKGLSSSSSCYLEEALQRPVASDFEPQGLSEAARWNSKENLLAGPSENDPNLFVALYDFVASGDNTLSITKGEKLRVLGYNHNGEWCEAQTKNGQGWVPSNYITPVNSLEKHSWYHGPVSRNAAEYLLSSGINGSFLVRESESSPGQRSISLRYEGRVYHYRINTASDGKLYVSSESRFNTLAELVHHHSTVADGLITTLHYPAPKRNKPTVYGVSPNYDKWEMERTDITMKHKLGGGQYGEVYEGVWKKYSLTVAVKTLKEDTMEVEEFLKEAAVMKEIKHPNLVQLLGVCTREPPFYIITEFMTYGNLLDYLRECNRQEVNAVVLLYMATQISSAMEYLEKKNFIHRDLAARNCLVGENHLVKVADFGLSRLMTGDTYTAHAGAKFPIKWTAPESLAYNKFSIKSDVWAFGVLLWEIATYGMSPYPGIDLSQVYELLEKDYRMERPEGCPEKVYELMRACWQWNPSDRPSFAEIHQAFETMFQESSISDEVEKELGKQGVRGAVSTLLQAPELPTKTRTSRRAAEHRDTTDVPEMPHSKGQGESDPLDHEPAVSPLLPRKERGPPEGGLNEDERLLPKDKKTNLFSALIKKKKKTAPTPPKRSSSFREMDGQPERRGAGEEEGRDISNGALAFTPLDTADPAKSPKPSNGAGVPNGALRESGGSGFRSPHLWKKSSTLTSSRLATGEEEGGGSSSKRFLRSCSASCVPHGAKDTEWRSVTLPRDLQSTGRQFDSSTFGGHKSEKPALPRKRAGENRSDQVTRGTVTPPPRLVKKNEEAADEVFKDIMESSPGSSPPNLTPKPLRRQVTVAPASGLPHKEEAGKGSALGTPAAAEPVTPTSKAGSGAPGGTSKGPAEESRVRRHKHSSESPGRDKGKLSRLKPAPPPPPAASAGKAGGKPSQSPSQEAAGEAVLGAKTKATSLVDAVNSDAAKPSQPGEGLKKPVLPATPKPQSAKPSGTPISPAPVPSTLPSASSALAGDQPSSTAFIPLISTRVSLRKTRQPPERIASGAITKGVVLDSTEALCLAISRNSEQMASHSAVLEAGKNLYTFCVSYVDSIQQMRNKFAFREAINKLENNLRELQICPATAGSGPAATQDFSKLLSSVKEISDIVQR
UniProt P31749: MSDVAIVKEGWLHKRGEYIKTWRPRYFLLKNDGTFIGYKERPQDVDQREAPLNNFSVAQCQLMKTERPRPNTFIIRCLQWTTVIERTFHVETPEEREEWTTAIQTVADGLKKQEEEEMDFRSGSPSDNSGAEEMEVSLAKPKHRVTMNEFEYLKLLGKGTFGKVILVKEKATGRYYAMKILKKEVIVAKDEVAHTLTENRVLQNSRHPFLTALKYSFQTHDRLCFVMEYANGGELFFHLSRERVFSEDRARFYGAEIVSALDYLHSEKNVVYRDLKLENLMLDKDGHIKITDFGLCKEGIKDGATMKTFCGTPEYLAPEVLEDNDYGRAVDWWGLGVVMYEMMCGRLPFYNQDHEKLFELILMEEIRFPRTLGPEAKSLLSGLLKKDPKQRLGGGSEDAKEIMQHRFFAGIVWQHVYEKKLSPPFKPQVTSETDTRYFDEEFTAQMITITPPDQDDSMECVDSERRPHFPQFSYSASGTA
UniProt Q9UM73: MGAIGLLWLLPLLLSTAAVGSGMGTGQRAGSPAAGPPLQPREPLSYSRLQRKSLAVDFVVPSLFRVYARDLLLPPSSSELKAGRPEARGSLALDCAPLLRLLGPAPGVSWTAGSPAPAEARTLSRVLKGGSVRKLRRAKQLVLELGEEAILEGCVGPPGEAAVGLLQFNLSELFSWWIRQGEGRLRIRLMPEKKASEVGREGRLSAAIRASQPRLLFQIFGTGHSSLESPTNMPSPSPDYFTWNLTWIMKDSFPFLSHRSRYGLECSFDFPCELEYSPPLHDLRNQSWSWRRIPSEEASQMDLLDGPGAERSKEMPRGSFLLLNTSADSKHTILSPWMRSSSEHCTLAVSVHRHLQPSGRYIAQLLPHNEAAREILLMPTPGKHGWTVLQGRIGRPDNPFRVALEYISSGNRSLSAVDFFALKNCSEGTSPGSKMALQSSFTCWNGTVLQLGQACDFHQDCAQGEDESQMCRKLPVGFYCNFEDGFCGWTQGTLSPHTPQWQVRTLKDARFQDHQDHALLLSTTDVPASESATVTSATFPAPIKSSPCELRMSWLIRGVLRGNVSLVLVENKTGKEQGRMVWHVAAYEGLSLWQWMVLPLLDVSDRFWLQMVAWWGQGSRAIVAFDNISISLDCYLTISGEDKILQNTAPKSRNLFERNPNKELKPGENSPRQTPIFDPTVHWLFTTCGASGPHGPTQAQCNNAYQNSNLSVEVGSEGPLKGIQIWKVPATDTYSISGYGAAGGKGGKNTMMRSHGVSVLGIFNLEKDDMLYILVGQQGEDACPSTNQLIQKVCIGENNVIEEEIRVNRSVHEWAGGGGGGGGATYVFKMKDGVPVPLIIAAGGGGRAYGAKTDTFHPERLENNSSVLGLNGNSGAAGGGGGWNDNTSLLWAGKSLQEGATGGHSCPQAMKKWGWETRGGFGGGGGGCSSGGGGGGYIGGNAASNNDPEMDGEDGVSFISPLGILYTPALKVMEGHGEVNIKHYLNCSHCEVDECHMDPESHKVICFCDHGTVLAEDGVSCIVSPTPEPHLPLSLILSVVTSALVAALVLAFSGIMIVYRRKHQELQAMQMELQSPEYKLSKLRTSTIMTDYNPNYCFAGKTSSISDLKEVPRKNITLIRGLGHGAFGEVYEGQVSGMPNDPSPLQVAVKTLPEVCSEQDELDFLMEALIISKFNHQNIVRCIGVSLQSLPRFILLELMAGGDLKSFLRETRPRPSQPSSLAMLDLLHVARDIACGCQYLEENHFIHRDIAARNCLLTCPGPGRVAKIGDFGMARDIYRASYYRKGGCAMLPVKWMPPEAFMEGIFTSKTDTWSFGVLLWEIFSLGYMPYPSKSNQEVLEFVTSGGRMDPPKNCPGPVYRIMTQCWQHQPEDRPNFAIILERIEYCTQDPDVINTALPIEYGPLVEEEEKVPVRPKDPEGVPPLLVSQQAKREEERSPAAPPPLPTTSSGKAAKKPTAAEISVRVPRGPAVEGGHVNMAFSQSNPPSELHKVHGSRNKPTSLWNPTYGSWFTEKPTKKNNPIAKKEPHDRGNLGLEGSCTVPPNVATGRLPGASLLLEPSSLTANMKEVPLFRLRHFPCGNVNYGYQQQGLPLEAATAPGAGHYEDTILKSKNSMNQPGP
UniProt P10398: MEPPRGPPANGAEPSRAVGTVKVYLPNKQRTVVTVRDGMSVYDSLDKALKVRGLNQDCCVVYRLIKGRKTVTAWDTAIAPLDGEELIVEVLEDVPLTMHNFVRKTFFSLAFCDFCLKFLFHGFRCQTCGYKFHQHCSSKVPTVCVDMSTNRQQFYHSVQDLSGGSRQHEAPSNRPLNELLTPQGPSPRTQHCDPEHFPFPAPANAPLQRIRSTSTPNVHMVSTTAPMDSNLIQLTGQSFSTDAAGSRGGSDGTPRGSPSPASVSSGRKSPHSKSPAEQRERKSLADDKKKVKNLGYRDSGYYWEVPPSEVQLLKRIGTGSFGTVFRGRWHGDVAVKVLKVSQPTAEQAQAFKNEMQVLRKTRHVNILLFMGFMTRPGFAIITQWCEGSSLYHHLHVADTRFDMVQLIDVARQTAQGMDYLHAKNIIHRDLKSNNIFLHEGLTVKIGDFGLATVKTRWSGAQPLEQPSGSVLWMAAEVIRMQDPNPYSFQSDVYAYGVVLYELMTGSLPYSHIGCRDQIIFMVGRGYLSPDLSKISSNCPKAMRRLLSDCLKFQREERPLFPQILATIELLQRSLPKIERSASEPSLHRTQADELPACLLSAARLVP
UniProt O14965: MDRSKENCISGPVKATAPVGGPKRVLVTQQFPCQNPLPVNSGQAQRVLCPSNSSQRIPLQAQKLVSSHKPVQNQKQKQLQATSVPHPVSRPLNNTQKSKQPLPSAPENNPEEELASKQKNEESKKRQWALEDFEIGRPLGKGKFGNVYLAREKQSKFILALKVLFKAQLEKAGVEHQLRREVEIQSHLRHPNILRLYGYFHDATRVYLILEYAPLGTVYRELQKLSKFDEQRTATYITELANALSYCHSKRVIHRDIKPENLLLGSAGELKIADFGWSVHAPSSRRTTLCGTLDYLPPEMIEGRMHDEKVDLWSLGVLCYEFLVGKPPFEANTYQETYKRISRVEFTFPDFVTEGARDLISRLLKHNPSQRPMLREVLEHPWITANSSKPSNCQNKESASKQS
UniProt Q96GD4, whole entry: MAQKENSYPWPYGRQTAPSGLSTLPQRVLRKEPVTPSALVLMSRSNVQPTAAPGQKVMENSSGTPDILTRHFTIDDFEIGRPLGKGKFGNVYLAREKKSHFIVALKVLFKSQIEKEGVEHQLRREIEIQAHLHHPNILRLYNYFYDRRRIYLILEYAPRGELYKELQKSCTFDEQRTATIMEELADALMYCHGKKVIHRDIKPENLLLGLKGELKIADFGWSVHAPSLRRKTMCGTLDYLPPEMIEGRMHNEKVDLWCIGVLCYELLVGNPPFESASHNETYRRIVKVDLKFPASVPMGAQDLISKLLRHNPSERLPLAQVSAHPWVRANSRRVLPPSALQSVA
UniProt P51451: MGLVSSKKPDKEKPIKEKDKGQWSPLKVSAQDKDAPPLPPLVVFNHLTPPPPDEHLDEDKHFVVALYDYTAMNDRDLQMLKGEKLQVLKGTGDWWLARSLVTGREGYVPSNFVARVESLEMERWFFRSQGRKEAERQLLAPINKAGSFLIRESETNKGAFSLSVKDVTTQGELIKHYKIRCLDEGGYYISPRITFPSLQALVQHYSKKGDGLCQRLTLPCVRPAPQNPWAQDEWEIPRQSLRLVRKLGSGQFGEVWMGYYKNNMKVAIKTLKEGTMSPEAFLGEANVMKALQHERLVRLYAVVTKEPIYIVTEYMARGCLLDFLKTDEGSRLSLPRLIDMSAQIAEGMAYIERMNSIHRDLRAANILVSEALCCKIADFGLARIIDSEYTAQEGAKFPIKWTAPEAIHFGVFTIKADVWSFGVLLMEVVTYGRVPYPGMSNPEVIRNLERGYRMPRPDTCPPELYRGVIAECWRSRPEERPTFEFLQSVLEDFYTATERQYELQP
UniProt Q13555: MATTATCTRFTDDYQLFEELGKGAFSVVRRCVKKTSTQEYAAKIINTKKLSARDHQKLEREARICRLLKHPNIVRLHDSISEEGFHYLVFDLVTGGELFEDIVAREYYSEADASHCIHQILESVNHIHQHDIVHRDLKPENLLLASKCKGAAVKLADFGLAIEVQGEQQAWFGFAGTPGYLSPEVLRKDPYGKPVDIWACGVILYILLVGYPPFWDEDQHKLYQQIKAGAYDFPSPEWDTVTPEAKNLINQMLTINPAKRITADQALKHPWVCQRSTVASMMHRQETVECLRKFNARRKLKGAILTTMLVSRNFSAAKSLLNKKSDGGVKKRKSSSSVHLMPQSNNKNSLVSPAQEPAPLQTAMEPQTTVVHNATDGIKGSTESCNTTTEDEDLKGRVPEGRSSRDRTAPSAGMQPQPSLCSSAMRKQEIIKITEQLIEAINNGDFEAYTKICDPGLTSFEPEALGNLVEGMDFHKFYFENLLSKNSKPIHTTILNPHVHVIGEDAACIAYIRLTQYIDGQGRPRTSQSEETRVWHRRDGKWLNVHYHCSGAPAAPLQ
UniProt Q00526: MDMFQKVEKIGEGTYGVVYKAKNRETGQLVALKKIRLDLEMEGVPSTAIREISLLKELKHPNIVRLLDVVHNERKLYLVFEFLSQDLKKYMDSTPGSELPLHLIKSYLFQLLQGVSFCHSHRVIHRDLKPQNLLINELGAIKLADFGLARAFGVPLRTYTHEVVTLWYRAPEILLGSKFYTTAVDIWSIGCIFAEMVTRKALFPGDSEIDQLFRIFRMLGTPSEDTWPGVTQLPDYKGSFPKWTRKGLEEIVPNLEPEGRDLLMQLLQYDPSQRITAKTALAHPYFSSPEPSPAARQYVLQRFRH
UniProt P11802: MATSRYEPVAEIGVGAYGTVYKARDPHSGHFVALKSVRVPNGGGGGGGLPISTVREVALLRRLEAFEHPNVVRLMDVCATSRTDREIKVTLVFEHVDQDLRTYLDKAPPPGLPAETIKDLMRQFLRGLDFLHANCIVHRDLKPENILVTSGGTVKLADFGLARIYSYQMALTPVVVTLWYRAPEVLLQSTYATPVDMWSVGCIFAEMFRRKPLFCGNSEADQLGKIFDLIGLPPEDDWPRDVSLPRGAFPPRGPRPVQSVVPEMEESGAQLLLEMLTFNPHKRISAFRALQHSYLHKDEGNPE
UniProt Q00534, whole entry: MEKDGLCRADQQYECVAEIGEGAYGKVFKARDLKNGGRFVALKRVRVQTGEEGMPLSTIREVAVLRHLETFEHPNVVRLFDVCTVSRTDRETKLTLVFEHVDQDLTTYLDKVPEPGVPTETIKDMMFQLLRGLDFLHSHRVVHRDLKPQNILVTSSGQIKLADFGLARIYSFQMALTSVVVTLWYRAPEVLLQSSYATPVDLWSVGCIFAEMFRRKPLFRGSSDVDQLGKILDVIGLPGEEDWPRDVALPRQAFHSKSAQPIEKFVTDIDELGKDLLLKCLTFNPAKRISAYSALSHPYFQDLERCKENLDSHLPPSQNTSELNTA

Assays:
Experiment in all cases: kinase-Nluc reporter destabilization hit call (1 = scored as downregulated) (binary); higher = compound decreases kinase abundance
Settings in all cases: K562, 2-18 h
ABL1 = ABL1 (UniProt P00519)
AKT1 = AKT1 (UniProt P31749)
ALK = ALK (UniProt Q9UM73)
ARAF = ARAF (UniProt P10398)
AURKA = AURKA (UniProt O14965)
AURKB = AURKB (UniProt Q96GD4)
AURKC = AURKC (UniProt Q9UQB9)
BLK = BLK (UniProt P51451)
BMX = BMX (UniProt P51813)
BRAF = BRAF (UniProt P15056)
BRAF_V600E = system: BRAF_V600E
BTK = BTK (UniProt Q06187)
CAMK2A = CAMK2A (UniProt Q9UQM7)
CAMK2G = CAMK2G (UniProt Q13555)
CDK10 = CDK10 (UniProt Q15131)
CDK2 = CDK2 (UniProt P24941)
CDK3 = CDK3 (UniProt Q00526)
CDK4 = CDK4 (UniProt P11802)
CDK5 = CDK5 (UniProt Q00535)
CDK6 = CDK6 (UniProt Q00534)

Measured: kinase-Nluc reporter destabilization hit call

C=CC(=O)Nc1cc(Nc2nccc(-c3cn(C)c4ccccc34)n2)c(OC)cc1N(C)CCN(C)C [Osimertinib]
inactive: ABL1; 2.5 µM 0 | AKT1; 2.5 µM 0 | ALK; 2.5 µM 0 | ARAF; 2.5 µM 0 | AURKA; 2.5 µM 0 | AURKB; 2.5 µM 0 | AURKC; 2.5 µM 0 | BLK; 2.5 µM 0 | BMX; 2.5 µM 0 | BRAF; 2.5 µM 0 | BRAF_V600E; 2.5 µM 0 | BTK; 2.5 µM 0 | CAMK2A; 2.5 µM 0 | CAMK2G; 2.5 µM 0 | CDK10; 2.5 µM 0 | CDK2; 2.5 µM 0 | CDK3; 2.5 µM 0 | CDK4; 2.5 µM 0 | CDK5; 2.5 µM 0 | CDK6; 2.5 µM 0

COc1cc(/C=C/C(=O)O)ccc1O [Ferulic acid (sodium)]
inactive: ABL1; 10 µM 0 | AKT1; 10 µM 0 | ALK; 10 µM 0 | ARAF; 10 µM 0 | AURKA; 10 µM 0 | AURKB; 10 µM 0 | AURKC; 10 µM 0 | BLK; 10 µM 0 | BMX; 10 µM 0 | BRAF; 10 µM 0 | BRAF_V600E; 10 µM 0 | BTK; 10 µM 0 | CAMK2A; 10 µM 0 | CAMK2G; 10 µM 0 | CDK10; 10 µM 0 | CDK2; 10 µM 0 | CDK3; 10 µM 0 | CDK4; 10 µM 0 | CDK5; 10 µM 0 | CDK6; 10 µM 0

Cn1cc(-c2cnc3ccc4ccc(CS(=O)(=O)NCc5ccccn5)cc4c(=O)c3c2)cn1 [MK-8033 (hydrochloride)]
inactive: ABL1; 10 µM 0 | AKT1; 10 µM 0 | ALK; 10 µM 0 | ARAF; 10 µM 0 | AURKA; 10 µM 0 | AURKB; 10 µM 0 | AURKC; 10 µM 0 | BLK; 10 µM 0 | BMX; 10 µM 0 | BRAF; 10 µM 0 | BRAF_V600E; 10 µM 0 | BTK; 10 µM 0 | CAMK2A; 10 µM 0 | CAMK2G; 10 µM 0 | CDK10; 10 µM 0 | CDK2; 10 µM 0 | CDK3; 10 µM 0 | CDK4; 10 µM 0 | CDK5; 10 µM 0 | CDK6; 10 µM 0

Cc1[nH]c(/C=C2\C(=O)Nc3ccc(F)cc32)c(C)c1C(=O)NCCN1CCCC1 [Toceranib]
inactive: ABL1; 2 µM 0 | AKT1; 2 µM 0 | ALK; 2 µM 0 | ARAF; 2 µM 0 | AURKA; 2 µM 0 | AURKB; 2 µM 0 | AURKC; 2 µM 0 | BLK; 2 µM 0 | BMX; 2 µM 0 | BRAF; 2 µM 0 | BRAF_V600E; 2 µM 0 | BTK; 2 µM 0 | CAMK2A; 2 µM 0 | CAMK2G; 2 µM 0 | CDK10; 2 µM 0 | CDK2; 2 µM 0 | CDK3; 2 µM 0 | CDK4; 2 µM 0 | CDK5; 2 µM 0 | CDK6; 2 µM 0

Cc1cc(Nc2ncc(Cl)c(Nc3ccccc3S(=O)(=O)C(C)C)n2)c(OC(C)C)cc1C1CCNCC1 [Ceritinib]
inactive: ABL1; 2.5 µM 0 | AKT1; 2.5 µM 0 | ALK; 2.5 µM 0 | ARAF; 2.5 µM 0 | AURKA; 2.5 µM 0 | AURKB; 2.5 µM 0 | AURKC; 2.5 µM 0 | BLK; 2.5 µM 0 | BMX; 2.5 µM 0 | BRAF; 2.5 µM 0 | BRAF_V600E; 2.5 µM 0 | BTK; 2.5 µM 0 | CAMK2A; 2.5 µM 0 | CAMK2G; 2.5 µM 0 | CDK10; 2.5 µM 0 | CDK2; 2.5 µM 0 | CDK3; 2.5 µM 0 | CDK4; 2.5 µM 0 | CDK5; 2.5 µM 0 | CDK6; 2.5 µM 0

CS(=O)(=O)N1CCN(Cc2cc3nc(-c4cccc5[nH]ncc45)nc(N4CCOCC4)c3s2)CC1 [Pictilisib (dimethanesulfonate)]
inactive: ABL1; 10 µM 0 | AKT1; 10 µM 0 | ALK; 10 µM 0 | ARAF; 10 µM 0 | AURKA; 10 µM 0 | AURKB; 10 µM 0 | AURKC; 10 µM 0 | BLK; 10 µM 0 | BMX; 10 µM 0 | BRAF; 10 µM 0 | BRAF_V600E; 10 µM 0 | BTK; 10 µM 0 | CAMK2A; 10 µM 0 | CAMK2G; 10 µM 0 | CDK10; 10 µM 0 | CDK2; 10 µM 0 | CDK3; 10 µM 0 | CDK4; 10 µM 0 | CDK5; 10 µM 0 | CDK6; 10 µM 0

COC(=O)[C@H](CC(C)C)NC(=O)c1ccc(NC[C@@H](N)CS)cc1-c1cccc2ccccc12 [GGTI298 (Trifluoroacetate)]
inactive: ABL1; 10 µM 0 | AKT1; 10 µM 0 | ALK; 10 µM 0 | ARAF; 10 µM 0 | AURKA; 10 µM 0 | AURKB; 10 µM 0 | AURKC; 10 µM 0 | BLK; 10 µM 0 | BMX; 10 µM 0 | BRAF; 10 µM 0 | BRAF_V600E; 10 µM 0 | BTK; 10 µM 0 | CAMK2A; 10 µM 0 | CAMK2G; 10 µM 0 | CDK10; 10 µM 0 | CDK2; 10 µM 0 | CDK3; 10 µM 0 | CDK4; 10 µM 0 | CDK5; 10 µM 0 | CDK6; 10 µM 0

CN1CCCN(C(=O)c2cccc(-c3ccc(/C=C4/C(=O)Nc5ccc(Cl)cc54)o3)c2)CC1 [CX-6258 (hydrochloride hydrate)]
inactive: ABL1; 2.5 µM 0 | AKT1; 2.5 µM 0 | ALK; 2.5 µM 0 | ARAF; 2.5 µM 0 | AURKA; 2.5 µM 0 | AURKB; 2.5 µM 0 | AURKC; 2.5 µM 0 | BLK; 2.5 µM 0 | BMX; 2.5 µM 0 | BRAF; 2.5 µM 0 | BRAF_V600E; 2.5 µM 0 | BTK; 2.5 µM 0 | CAMK2A; 2.5 µM 0 | CAMK2G; 2.5 µM 0 | CDK10; 2.5 µM 0 | CDK2; 2.5 µM 0 | CDK3; 2.5 µM 0 | CDK4; 2.5 µM 0 | CDK5; 2.5 µM 0 | CDK6; 2.5 µM 0

Pulled by compound from above, two records:
Cc1[nH]c(/C=C2\C(=O)Nc3ccc(F)cc32)c(C)c1C(=O)NCCN1CCCC1 [Toceranib]
inactive: ABL1; 2 µM 0 | AKT1; 2 µM 0 | ALK; 2 µM 0 | ARAF; 2 µM 0 | AURKA; 2 µM 0 | AURKB; 2 µM 0 | AURKC; 2 µM 0 | BLK; 2 µM 0 | BMX; 2 µM 0 | BRAF; 2 µM 0 | BRAF_V600E; 2 µM 0 | BTK; 2 µM 0 | CAMK2A; 2 µM 0 | CAMK2G; 2 µM 0 | CDK10; 2 µM 0 | CDK2; 2 µM 0 | CDK3; 2 µM 0 | CDK4; 2 µM 0 | CDK5; 2 µM 0 | CDK6; 2 µM 0

Cc1cc(Nc2ncc(Cl)c(Nc3ccccc3S(=O)(=O)C(C)C)n2)c(OC(C)C)cc1C1CCNCC1 [Ceritinib]
inactive: ABL1; 2.5 µM 0 | AKT1; 2.5 µM 0 | ALK; 2.5 µM 0 | ARAF; 2.5 µM 0 | AURKA; 2.5 µM 0 | AURKB; 2.5 µM 0 | AURKC; 2.5 µM 0 | BLK; 2.5 µM 0 | BMX; 2.5 µM 0 | BRAF; 2.5 µM 0 | BRAF_V600E; 2.5 µM 0 | BTK; 2.5 µM 0 | CAMK2A; 2.5 µM 0 | CAMK2G; 2.5 µM 0 | CDK10; 2.5 µM 0 | CDK2; 2.5 µM 0 | CDK3; 2.5 µM 0 | CDK4; 2.5 µM 0 | CDK5; 2.5 µM 0 | CDK6; 2.5 µM 0

(list continues)

Nc1cncc(-c2cn3ccnc3c(Nc3ccc(N4CCN(C5COC5)CC4)cc3)n2)n1 [Lanraplenib]
inactive: ABL1; 10 µM 0 | AKT1; 10 µM 0 | ALK; 10 µM 0 | ARAF; 10 µM 0 | AURKA; 10 µM 0 | AURKB; 10 µM 0 | AURKC; 10 µM 0 | BLK; 10 µM 0 | BMX; 10 µM 0 | BRAF; 10 µM 0 | BRAF_V600E; 10 µM 0 | BTK; 10 µM 0 | CAMK2A; 10 µM 0 | CAMK2G; 10 µM 0 | CDK10; 10 µM 0 | CDK2; 10 µM 0 | CDK3; 10 µM 0 | CDK4; 10 µM 0 | CDK5; 10 µM 0 | CDK6; 10 µM 0
